Where a chain is given by its changes, count along the chain named. Results are given in words; binding and its absence hold for the method and conditions named. Binding seen in cells or lysates may run through a third protein. Some binding calls cover weakened binding; strength is not graded here. For some assays here: Tags and fused reporters may be left off the sequences shown.
Columns and labels:
[1] = target: T1, Siglec-15-R143A (human) (UniProt Q6ZMC9); experiment: co-IP; immunoprecipitation of flag in lysates from Siglec-15-flag (or R143A, N172Q) Daoy cells, immunoblot
T1 sequence: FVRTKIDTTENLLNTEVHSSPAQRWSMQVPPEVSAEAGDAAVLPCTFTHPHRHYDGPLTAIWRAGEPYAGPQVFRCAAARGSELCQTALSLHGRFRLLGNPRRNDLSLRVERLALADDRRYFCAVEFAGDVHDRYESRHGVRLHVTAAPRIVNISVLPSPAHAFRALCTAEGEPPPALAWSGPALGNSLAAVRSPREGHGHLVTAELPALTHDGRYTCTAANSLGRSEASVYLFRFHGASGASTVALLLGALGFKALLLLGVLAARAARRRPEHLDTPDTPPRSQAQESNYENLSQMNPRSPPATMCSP

Chains of the proteins cited; added tags and fusions are not shown. Residues count along the entry.
UniProt P11717, residues 41-2491: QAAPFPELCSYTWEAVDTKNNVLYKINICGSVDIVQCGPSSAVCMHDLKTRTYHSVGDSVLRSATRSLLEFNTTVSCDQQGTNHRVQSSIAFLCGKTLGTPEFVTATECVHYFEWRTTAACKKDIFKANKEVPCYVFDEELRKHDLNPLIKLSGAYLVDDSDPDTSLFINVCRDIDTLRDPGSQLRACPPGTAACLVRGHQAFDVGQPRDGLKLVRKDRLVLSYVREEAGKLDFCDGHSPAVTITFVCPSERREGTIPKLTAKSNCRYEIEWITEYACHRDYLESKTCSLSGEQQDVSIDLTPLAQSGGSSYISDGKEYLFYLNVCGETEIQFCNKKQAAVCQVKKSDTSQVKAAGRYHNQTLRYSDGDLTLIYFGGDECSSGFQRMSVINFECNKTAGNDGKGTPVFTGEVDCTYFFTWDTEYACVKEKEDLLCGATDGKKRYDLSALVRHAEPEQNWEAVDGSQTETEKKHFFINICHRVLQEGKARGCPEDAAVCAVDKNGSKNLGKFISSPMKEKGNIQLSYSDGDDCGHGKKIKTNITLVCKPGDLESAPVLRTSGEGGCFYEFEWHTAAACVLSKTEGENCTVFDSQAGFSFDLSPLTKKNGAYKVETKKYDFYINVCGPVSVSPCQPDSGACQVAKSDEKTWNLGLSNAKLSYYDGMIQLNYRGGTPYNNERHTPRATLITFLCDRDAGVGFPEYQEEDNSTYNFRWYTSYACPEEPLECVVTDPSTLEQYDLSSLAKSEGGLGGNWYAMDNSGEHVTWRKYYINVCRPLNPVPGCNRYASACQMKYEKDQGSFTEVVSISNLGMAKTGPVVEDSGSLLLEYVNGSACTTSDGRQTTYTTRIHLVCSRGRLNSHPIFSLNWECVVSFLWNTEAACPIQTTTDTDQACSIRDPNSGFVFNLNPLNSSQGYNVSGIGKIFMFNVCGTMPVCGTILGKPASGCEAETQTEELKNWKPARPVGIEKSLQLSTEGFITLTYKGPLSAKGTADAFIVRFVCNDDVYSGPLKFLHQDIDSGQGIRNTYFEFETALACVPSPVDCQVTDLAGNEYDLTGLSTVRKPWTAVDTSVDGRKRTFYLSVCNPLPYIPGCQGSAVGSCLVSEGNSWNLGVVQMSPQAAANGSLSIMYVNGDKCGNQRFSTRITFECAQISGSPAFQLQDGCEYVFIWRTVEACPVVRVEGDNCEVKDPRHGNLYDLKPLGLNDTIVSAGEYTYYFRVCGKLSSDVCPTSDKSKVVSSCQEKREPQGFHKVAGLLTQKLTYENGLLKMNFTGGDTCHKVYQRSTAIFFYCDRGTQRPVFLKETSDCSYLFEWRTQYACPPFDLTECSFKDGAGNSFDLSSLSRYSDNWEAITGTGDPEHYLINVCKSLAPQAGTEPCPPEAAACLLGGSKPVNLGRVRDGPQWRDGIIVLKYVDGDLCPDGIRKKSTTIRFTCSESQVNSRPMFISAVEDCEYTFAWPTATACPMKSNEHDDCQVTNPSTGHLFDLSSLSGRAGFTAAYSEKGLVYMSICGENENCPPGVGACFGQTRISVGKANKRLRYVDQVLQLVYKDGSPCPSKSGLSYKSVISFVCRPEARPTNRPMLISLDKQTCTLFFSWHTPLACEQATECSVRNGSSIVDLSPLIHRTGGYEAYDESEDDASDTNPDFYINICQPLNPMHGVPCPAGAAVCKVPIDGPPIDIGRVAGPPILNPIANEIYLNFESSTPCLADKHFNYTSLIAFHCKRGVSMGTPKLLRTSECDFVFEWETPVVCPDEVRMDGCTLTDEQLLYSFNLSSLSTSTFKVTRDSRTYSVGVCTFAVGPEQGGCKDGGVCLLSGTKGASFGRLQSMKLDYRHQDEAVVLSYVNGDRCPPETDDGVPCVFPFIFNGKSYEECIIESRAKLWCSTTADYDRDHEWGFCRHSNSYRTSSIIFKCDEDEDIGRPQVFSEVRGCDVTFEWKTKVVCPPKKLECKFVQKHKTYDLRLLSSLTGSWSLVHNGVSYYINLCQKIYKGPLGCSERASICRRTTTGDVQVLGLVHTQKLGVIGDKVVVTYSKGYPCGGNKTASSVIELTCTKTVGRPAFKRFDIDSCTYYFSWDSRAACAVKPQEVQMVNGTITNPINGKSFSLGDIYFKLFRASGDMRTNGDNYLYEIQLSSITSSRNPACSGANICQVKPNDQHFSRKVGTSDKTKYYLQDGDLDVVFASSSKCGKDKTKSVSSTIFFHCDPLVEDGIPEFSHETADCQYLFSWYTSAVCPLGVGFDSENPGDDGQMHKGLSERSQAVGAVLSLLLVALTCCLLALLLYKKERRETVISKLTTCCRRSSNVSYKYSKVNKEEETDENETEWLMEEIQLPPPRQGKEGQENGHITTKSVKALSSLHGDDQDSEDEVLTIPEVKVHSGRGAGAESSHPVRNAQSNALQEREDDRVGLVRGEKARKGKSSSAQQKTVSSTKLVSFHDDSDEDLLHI
UniProt Q9GZU1: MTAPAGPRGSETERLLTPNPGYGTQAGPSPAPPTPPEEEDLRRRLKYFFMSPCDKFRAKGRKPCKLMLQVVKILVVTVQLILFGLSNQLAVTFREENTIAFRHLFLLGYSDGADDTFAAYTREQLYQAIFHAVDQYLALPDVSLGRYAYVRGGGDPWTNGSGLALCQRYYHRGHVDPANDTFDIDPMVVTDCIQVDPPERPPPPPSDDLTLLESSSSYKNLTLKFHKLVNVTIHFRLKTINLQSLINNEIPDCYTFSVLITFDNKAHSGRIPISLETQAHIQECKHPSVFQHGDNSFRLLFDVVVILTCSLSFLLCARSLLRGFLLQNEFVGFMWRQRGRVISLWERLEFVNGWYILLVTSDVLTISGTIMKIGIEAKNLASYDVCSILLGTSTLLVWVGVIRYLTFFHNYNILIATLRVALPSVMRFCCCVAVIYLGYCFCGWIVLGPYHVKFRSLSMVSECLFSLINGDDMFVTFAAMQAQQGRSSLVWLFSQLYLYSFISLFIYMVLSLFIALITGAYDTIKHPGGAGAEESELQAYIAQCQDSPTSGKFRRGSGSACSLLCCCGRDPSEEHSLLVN

[2] = target: T2, Siglec-15-flag (sialic acid-binding immunoglobulin-like receptor 15, full length) (human) (UniProt Q6ZMC9); experiment: as above
T2 sequence: T1 sequence with A124R

[3] = target: T3, Siglec-15-ED-flag (human) (UniProt Q6ZMC9); experiment: co-IP; truncated forms of Siglec-15 and TRPML1; cells not given
T3 sequence: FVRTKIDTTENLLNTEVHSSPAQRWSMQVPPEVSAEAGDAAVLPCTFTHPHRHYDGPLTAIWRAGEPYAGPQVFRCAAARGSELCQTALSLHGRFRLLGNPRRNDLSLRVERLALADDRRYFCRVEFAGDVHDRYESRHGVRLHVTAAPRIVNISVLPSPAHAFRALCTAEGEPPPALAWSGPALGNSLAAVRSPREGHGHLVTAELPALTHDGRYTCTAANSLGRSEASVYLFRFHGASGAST

[4] = target: T2, Siglec-15-flag (sialic acid-binding immunoglobulin-like receptor 15, full length) (human); experiment: as above

For “cation-independent mannose 6-phosphate receptor (CI-MPR) (from UniProt P11717 41-2491)”, the binding [1] was “binds” and the binding [2] was “binds”.
With “mucolipin TRP cation channel 1 (TRPML1) (from UniProt Q9GZU1 1-580)” the binding [3] was “binds”, the binding [4] was “binds” and the binding [2] was “binds”.

Reference: paper PMC13161473 (2025)
